# Data as given in PubChem BioAssay AID590 (National Center for Advancing Translational Sciences (NCATS), 2007).
# Out of some 59,000 compounds screened, about 6,500 (11%) were called active. Inconclusive means that the source gave no clear call. Such entries were picked first, then a sample of the others. No stated cut-off is given here; in the data, active means max dye-equivalent concentration above about 10 nM; inconclusive means mostly about 1.1 nM to 9.6 nM; inactive means weaker than that.
# Experiment: qHTS Assay for Spectroscopic Profiling in A350 Spectral Region
# Settings: Compound autofluorescence, 340/450 nm, Alexa 350 dye-equivalents; active compounds read high
row,Compound,max dye-equivalent concentration
1,O=C(CSc1nc2ccccc2o1)N1CCN(c2ccccc2)CC1,inactive
2,COc1ccccc1-c1cc(C(F)(F)F)nc(N2CCN(c3ccc(F)cc3)CC2)n1,inactive
3,CC1(C)Cc2c(C#N)c(NCC3CCCO3)nc(-c3ccco3)c2CO1 (stereo not given),active: 580 nM
4,CN(C)CCCN1C(=O)C(=O)/C(=C(/O)c2ccc3c(c2)OCCO3)C1c1ccccn1 (stereo not given),inconclusive: 1.6 nM
5,COc1ccc(-c2cn3cccnc3n2)cc1NC(=O)CC(C)C,active: 160 nM
6,Cc1ccc(S(=O)(=O)NC(C)C(=O)NC2CCCCCC2)cc1 (stereo not given),inconclusive: 1.8 nM
7,CCOC(=O)C1CN(c2cc3c(cc2F)c(=O)c(C(=O)O)cn3CC)OC1C(=O)OCC (stereo not given),inconclusive: 2.3 nM
8,Cn1c(=O)n(C)c2cc(CNc3ccc(N4CCOCC4)c(C(=O)O)c3)ccc21,active: 22 nM
9,CCC(C)n1[nH]c(=O)cc1N (stereo not given),inactive
10,N#CC1=C(N)Oc2n[nH]c(-c3cccs3)c2C1c1cccs1 (stereo not given),inactive
11,O=P(C1=C(N2CCOCC2)/C(=C\c2ccccc2)CC1)(N1CCOCC1)N1CCOCC1,inconclusive: 6.7 nM
12,Cc1nc(N2CCCC2)c2nnn(Cc3ccccc3Cl)c2n1,inactive
13,C=CCSc1nnc(NC(=O)CSc2ccccn2)s1,inconclusive: 1.2 nM
14,CN(Cc1ccco1)c1ncncc1-c1cccc(C#N)c1,inactive
15,COc1ccc(N2CCN(CC(=O)Nc3c(C)cc(C)cc3C)CC2)cc1,inactive
16,CN(C)C(CNC(=O)C1CCCN(C(=O)c2ccc(Cl)cc2)C1)c1ccco1 (stereo not given),inconclusive: 3.6 nM
17,COC(=O)CC1=NC(=O)CS1,inconclusive: 2.2 nM
18,COc1ccc(-n2c(=O)c(CCc3ccccc3)nc3cnc(OC)nc32)cc1,inconclusive: 1.4 nM
19,c1ccc(Nc2ncnc3ccc(-c4ccc5c(c4)OCO5)cc23)cc1,inconclusive: 2.3 nM
20,CCOC(=O)c1c(C)nn(Cc2ccccc2)c1N,inactive

# 3 compounds already listed, ordered by molar mass, low to high:
row,Compound,max dye-equivalent concentration
12,Cc1nc(N2CCCC2)c2nnn(Cc3ccccc3Cl)c2n1,inactive
18,COc1ccc(-n2c(=O)c(CCc3ccccc3)nc3cnc(OC)nc32)cc1,inconclusive: 1.4 nM
8,Cn1c(=O)n(C)c2cc(CNc3ccc(N4CCOCC4)c(C(=O)O)c3)ccc21,active: 22 nM

# (further entries)

row,Compound,max dye-equivalent concentration
1,COc1cc(C2Nc3ccc4ncccc4c3C3=C2C(=O)CCC3)cc(OC)c1O (stereo not given),inconclusive: 2.5 nM
2,COc1ccc2c(=O)c(C(=O)NCCc3ccc(OC)c(OC)c3)c[nH]c2c1,inactive
3,CCOC(=O)COc1ccc(CCNC(C)=O)cc1,inactive
4,CCCn1c2c(c(O)c(C(=O)Nc3nc(C)cs3)c1=O)CCCC2,inconclusive: 1.2 nM
5,Cc1nc2sc3c(c2c2nc(-c4ccco4)nn12)CC(C)(C)OC3,inactive
6,N#Cc1cccc(-c2cc(NCc3cccs3)ncn2)c1,inconclusive: 4.4 nM
7,C/C(=N\O)C(=O)NCc1ccncc1,inconclusive: 4.7 nM
8,N#Cc1c(N)nc2c(c1-c1ccc3c(c1)OCO3)CCCCCC2,active: 72 nM
9,O=C1C2ON(c3ccccc3)C(c3cccnc3)C2C(=O)N1Cc1ccccc1 (stereo not given),inconclusive: 3.2 nM
10,CC(C)(C)NCC(O)COc1cccc2c1C[C@H](O)[C@H](O)C2 (stereo not given in full),inconclusive: 3.3 nM
11,COC(=O)C1CCN(C(=O)COC(=O)c2n[nH]c3ccccc23)CC1,inconclusive: 1.3 nM
12,COC(=O)[C@H](CC(C)C)NC(=O)NC1CCCc2ccccc21 (stereo not given in full),inconclusive: 1.2 nM
13,COc1ccc(C(CNC(=O)c2cccnc2SC)N2CCOCC2)cc1 (stereo not given),inconclusive: 1.3 nM
14,Cc1c(C(=O)N2CCN(c3ccc(C(F)(F)F)cn3)CC2)oc2ccccc12,inactive
15,CC(=O)Nc1c(C(=O)c2ccc(F)cc2)oc2ccccc12,active: 13 nM
16,O=C(CSc1nnc2scc(-c3ccccc3)n12)Nc1ccc2c(c1)OCCO2,active: 11 nM
17,C[C@@H]1O[C@@H](O)[C@@H](O)[C@H](O)[C@H]1O,inactive
18,CCc1cccc(CC)c1N(COC)C(=O)Cn1c(CO)nc2ccccc21,inconclusive: 1.1 nM
19,COc1ccc(-c2cc(C(F)F)n3ncc(C(=O)NCC4CCCO4)c3n2)cc1 (stereo not given),active: 820 nM
20,Cn1c(SCc2nc3ccccc3[nH]2)nnc1-c1cccs1,inconclusive: 1.6 nM

row,Compound,max dye-equivalent concentration
1,Cc1nnc(SCC(=O)NCc2ccco2)[nH]c1=O,inconclusive: 1.6 nM
2,CN1C(=C2C(=O)OC(C)(C)OC2=O)Sc2ccccc21,inactive
3,COc1ccc(C(=O)Nc2ccc(S(=O)(=O)Nc3onc(C)c3C)cc2)cc1OC,inactive
4,O=C(C1CCCN(Cc2ccccc2Br)C1)N1CCCCC1 (stereo not given),inconclusive: 1.9 nM
5,CC[C@@H](CS(=O)(=O)O)[N+](=O)[O-],inactive
6,COc1ccc(CNc2ncncc2-c2ccc(N(C)C)cc2)c(OC)c1,inactive
7,CC1N/C(=C\C(=O)c2ccccc2)N(O)C1(C)C (stereo not given),inconclusive: 2.6 nM
8,CN(C)C=Nc1ncc2c3ccccc3n(CCN(C)C)c2c1C#N,active: 110 nM
9,CCc1cc2c(SCC(=O)C(C#N)=C3N(C)c4ccccc4N3C)ncnc2s1,active: 21 nM
10,Cc1ccc2cc(CCNC(=O)c3ccco3)c(=O)[nH]c2c1,inconclusive: 1.1 nM
11,CCOC(=O)c1oc2ccccc2c1NC(=O)COC,inactive
12,CCOC(=O)C1=C(C)OC(N)=C(C(=O)OCC)C1c1cccnc1 (stereo not given),inconclusive: 1.4 nM
13,Cc1ccc(N2CCN(c3ccc(C)cc3)C(CC(=O)O)C2=O)cc1 (stereo not given),inconclusive: 1.4 nM
14,CSc1cccc(NC(=O)CSc2nnc(C)s2)c1,inconclusive: 1.6 nM
15,CCn1c(SCc2nc3ccccc3[nH]2)nnc1-c1cccs1,inconclusive: 1.1 nM
16,CC(C)(C)OC(=O)N1CCOCCOCCN(C(=O)OC(C)(C)C)CCOCC1,inactive
17,Fc1ccc(-c2nnc(SCc3ncc(-c4ccccc4)o3)n2CC2CCCO2)cc1 (stereo not given),inconclusive: 1.4 nM
18,Cc1c(C(=O)NCc2cccnc2)oc2ccc(S(=O)(=O)N3CCCC(C)C3)cc12 (stereo not given),inactive
19,CC(C)Cn1cnc2c(c1=O)c1nc3ccccc3nc1n2Cc1ccc2c(c1)OCO2,inconclusive: 1.9 nM
20,Cc1nc2ccccc2nc1OCC(=O)N1CCN(c2ccccc2)CC1,active: 16 nM
